PubChem BioAssay AID504467 (National Center for Advancing Translational Sciences (NCATS), 2011)
In all, about 330,000 compounds went through this assay and about 7,700 (2.3%) were called active. Inconclusive results, whose numbers are uncertain, are shown with a selection of clear calls. The call rests on the fitted dose curve; in most records, active means well fitted inhibition curve with a large enough effect; inconclusive means small, poorly fitted or top-dose-only effect, or effect the other way; inactive means flat fitted curve, though single readings scatter. Where the call is inconclusive, the potency comes from a doubtful curve fit.

Test: qHTS screen for small molecules that inhibit ELG1-dependent DNA repair in human embryonic kidney (HEK293T) cells expressing luciferase-tagged ELG1; further: nearly all actives have a fitted effect of over 55% in size
Conditions: HEK293T ELG1-luciferase reporter, luminescence, 16 h, DNA damage induced by 5-fluorouridine; activity change, negative = inhibition: at 46.1 µM (top of the series)
How it was run: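 Quantitative HTS, concentration-response format. 2,000 cells/well co-treated with 5-fluorouridine and compound, 16 hr in 5% CO2 at 37 °C; ONE-Glo luminescence read after 30 min.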
On the % scale 0 is the no-effect control and ±100 the full control effect; potency means the concentration at half of the fitted maximal effect.

Row | SMILES | Potency | activity change, negative = inhibition
1 | COc1ccccc1CNC(=O)C(Cc1c[nH]c2ccccc12)NC(=O)OCc1ccccc1 (centres undefined) | inconclusive: 25.9 µM [inhibitor, single point] | 
2 | COc1ccc(NC(=O)N2CCCC2C(=O)NCc2ccccc2Cl)cc1 (centres undefined) | inconclusive: 18.3 µM [inhibitor, single point] | 
3 | CC(C)(C)n1cnc2cc(NS(=O)(=O)c3ccc(Br)cc3)ccc21 | inconclusive: 20.6 µM [inhibitor, single point] | 
4 | COc1cccc(Cn2c(Oc3cccc(C)c3)nc3c2c(=O)n(C)c(=O)n3C)c1 | inconclusive: 16.4 µM [inhibitor, single point] | 
5 | CSc1cccc(NC(=S)N(Cc2ccc(C)cc2)Cc2ccccn2)c1 | inconclusive: 29.1 µM [inhibitor, single point] | 
6 | CCCCNC(=O)CN1C(=O)NC2NC(=O)NC21 (centres undefined) | inconclusive: 29.1 µM [activator, partial curve, poor fit] | 
7 | CCc1c(O)c(/C(C)=N\O)c(=O)n(-c2ccccc2)c1-c1ccccc1 |  | inactive: -14.2%
8 | NC(=O)c1nc[nH]c1C(=O)Nc1cccc(C(F)(F)F)c1 | inconclusive: 18.3 µM [activator, partial curve, poor fit] | 
9 | O=C1NC(=S)S/C1=C\c1ccc(SCc2ccco2)o1 |  | inactive: -16.6%
10 | c1ccc(Cn2cc(CNc3ccccc3)nn2)cc1 | inconclusive: 20.6 µM [activator, single point] | 
11 | COc1ccc(/C=C/C(=O)Nc2cccc(S(=O)(=O)NC3=NCCCCC3)c2)c(OC)c1 | inconclusive: 29.1 µM [inhibitor, single point] | 
12 | Cn1cccc1CC(=O)N/N=C/c1cccc2ccccc12 |  | inactive: -3.05%
13 | Cc1ccc(N(C)C(=O)CN(C)S(=O)(=O)c2ccc3c(c2)n(C)c(=O)c(=O)n3C)cc1 |  | inactive: 21.5%
14 | COc1ccc(-c2nc(N)ncc2-c2ccc(OC)c(OC)c2)c(O)c1 | inconclusive: 23.1 µM [inhibitor, partial curve] | 
15 | CCCCn1c(N)c(N(CCC(C)C)C(=O)c2ccc3ccccc3c2)c(=O)[nH]c1=O | inconclusive: 35.5 µM [activator, single point] | 
16 | Cc1cc(NC(=O)c2ccco2)sc1C | inconclusive: 6.51 µM [activator, partial curve] | 
17 | CCC1C(O)=C(c2ccccn2)C(=N)N1c1ccccc1 (centres undefined) |  | inactive: -10.9%
18 | COC(=O)c1ccc(NC(=S)NCCCN2CCCC2=O)cc1 | inconclusive: 23.1 µM [inhibitor, partial curve, poor fit] | 
19 | CCOC(=O)c1c(NC(=O)COc2ncnc3ccccc23)sc(C(C)=O)c1C | inconclusive: 29.1 µM [inhibitor, single point] | 
20 | COC(=O)CCC(=O)COc1ccc(OC)cc1C#N | inconclusive: 10.3 µM [activator, partial curve] | 
21 | Cc1ccc(Nc2nc(NCCO)nc3c2cnn3C)cc1Cl | inconclusive: 18.3 µM [inhibitor, single point] | 
22 | COC(=O)c1ccc2[nH]c3c(c2c1)CC(C)CC3 (centres undefined) | inconclusive: 11.6 µM [activator, partial curve] | 

Row | SMILES | Potency | activity change, negative = inhibition
23 | Cc1nc(C(=O)N2CCc3c([nH]c4ccccc34)C2c2ccccn2)cs1 (centres undefined) | inconclusive: 14.6 µM [activator, partial curve, poor fit] | 
24 | Cc1cc(NC(=O)/C=C/c2cccc(Cl)c2)n(-c2nc3ccccc3[nH]2)n1 | inconclusive: 14.6 µM [inhibitor, partial curve] | 
25 | COc1c(-c2ccc(O)cc2)oc2cc(O)cc(O)c2c1=O | inconclusive: 0.82 µM [activator, full curve, poor fit] | 
26 | CN(C)CCN1C(=O)c2ccccc2C1=O | inconclusive: 2.59 µM [activator, partial curve, poor fit] | 
27 | CCOC(=O)c1sc2nc3c(SCC(=O)O)cc(C(=O)c4ccccc4O)cn3c(=O)c2c1C |  | inactive: 10.5%
28 | O=C1CN(C(=O)CCCc2c[nH]c3ccccc23)c2ccccc2N1 | inconclusive: 29.1 µM [inhibitor, single point] | 
29 | Cc1ccc(NC2CC(=O)N(CCc3ccccc3)C2=O)cc1 (centres undefined) |  | inactive: -5.71%
30 | CCSCc1nnc(SCC(=O)Nc2nc3ccccc3s2)n1C | inconclusive: 13 µM [activator, partial curve] | 
31 | COc1cccc(C2Nc3ccc4ccccc4c3C3=C2C(=O)CCC3)c1O (centres undefined) |  | inactive: -8.38%
32 | CSc1ccc(CNC(=O)Cc2ccc(NC(=O)C3=C(C)OCCS3)cc2)cc1 | inconclusive: 18.3 µM [activator, partial curve] | 
33 | O=C(N/N=C/c1ccc[nH]1)c1ccccc1[N+](=O)[O-] |  | inactive: 3.32%
34 | CCOC(=O)c1c(NC(=O)CN2CCN(C(=O)c3ccco3)CC2)sc(C(N)=O)c1C | active: 23.1 µM | 
35 | O=c1c2ccc([N+](=O)[O-])cc2ncn1CCOc1cccc(Br)c1 | active: 18.3 µM | 
36 | Cc1ccc(NS(=O)(=O)c2cc3c4c(cccc4c2)C(=O)NC3=O)cc1 | inconclusive: 18.3 µM [inhibitor, single point] | 
37 | COc1ccc(C(=O)Nc2ccc(Cl)c(S(=O)(=O)Nc3ccccc3OC)c2)cc1 | inconclusive: 8.2 µM [inhibitor, partial curve] | 
38 | CCc1n[nH]c(=S)n1/N=C/c1cccc2ccccc12 |  | inactive: 6.65%
39 | O=C(CN1CCCCC1)Nc1cccc(Br)c1 | inconclusive: 29.1 µM [activator, single point] | 
40 | CC(=O)Nc1cc(-c2ccc(Cl)cc2)[nH]n1 | inconclusive: 18.3 µM [activator, partial curve] | 
41 | CCOc1ccc(C(=O)C(C)OC(=O)Cn2cnc3c2c(=O)n(C)c(=O)n3C)cc1 (centres undefined) | inconclusive: 1.3 µM [inhibitor, full curve, poor fit] | 
42 | CCN(CC)C(=O)CC(c1ccccc1)c1ccco1 (centres undefined) |  | inactive: 5.03%
43 | O=C(NC(=S)NCCc1ccccc1)C1CCCCC1 | inconclusive: 16.4 µM [activator, single point] | 
44 | CN(C)S(=O)(=O)c1cccc(COC(=O)c2cc([N+](=O)[O-])ccc2N2CCOCC2)c1 | inconclusive: 23.1 µM [inhibitor, single point] | 

Some of these compounds in order of molecular weight, low to high.
Row | SMILES | Potency | activity change, negative = inhibition
33 | O=C(N/N=C/c1ccc[nH]1)c1ccccc1[N+](=O)[O-] |  | inactive: 3.32%
38 | CCc1n[nH]c(=S)n1/N=C/c1cccc2ccccc12 |  | inactive: 6.65%
18 | COC(=O)c1ccc(NC(=S)NCCCN2CCCC2=O)cc1 | inconclusive: 23.1 µM [inhibitor, partial curve, poor fit] | 
